Chains of the proteins cited; added tags and fusions are not shown. Lines headed by an entry give the natural chain unless they say otherwise; changes in a name come on top.
UniProt P22813: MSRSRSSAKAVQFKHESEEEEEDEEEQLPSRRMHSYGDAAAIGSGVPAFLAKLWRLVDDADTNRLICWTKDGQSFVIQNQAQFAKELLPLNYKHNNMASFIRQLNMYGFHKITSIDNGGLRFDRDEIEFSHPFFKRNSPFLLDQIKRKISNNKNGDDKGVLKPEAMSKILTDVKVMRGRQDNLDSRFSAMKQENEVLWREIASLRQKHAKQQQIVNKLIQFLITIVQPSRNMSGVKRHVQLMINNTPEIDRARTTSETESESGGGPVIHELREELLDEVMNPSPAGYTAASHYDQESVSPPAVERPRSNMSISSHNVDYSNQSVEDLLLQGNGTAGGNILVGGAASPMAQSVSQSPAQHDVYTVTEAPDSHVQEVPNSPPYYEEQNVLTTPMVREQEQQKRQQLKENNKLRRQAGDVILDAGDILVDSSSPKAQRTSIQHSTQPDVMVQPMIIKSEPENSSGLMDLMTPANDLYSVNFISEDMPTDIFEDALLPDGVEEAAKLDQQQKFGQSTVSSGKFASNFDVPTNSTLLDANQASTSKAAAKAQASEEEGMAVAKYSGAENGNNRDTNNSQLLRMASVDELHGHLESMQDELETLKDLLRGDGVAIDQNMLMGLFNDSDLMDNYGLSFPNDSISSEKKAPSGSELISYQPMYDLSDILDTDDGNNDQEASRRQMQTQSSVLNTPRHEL

According to PMC4336284:

Target: HSF (heat shock factor) (Drosophila melanogaster) (UniProt P22813)
Experiment: EMSA, anti-HSF supershift
Details: extracts after heat shock 37 C, poly(dI-dC) 10 ng, 4.5% acrylamide Tris/borate/EDTA gel, HSF: 10 ug extract protein, protein in an extract, label: 32P

| Sequence | binding result | binding result (similar to hsp70Aa) |
| --- | --- | --- |
| ATCCGAGCGCGCCTCGAATGTTCTAGAA / CCTTTTCTAGAACATTCGAGGCGCGCTC [hsp70Aa HSE oligo] | binds | – |
| TTTTCGAAGTCTCGACTCTTCTCCAGAGTTCCAACAGAATGTTCCCG / TAAATCGTCGGGAACATTCTGTTGGAACTCTGGAGAAGAGTCGAGAC [hsp70S3 HSE oligo (-94 to -39)] | – | binds |
| CGTTCGAAGCTTCTCGATACATCTACAGAGTTCCAACAGAATGTTCCCG / TAAATCGTCGGGAACATTCTGTTGGAACTCTGTAGATGTATCGAG [hsp70S4 HSE oligo (-94 to -39)] | – | binds |

The exact form of at least one protein or probe is not confirmed. Where cells or extracts were used, other partners may take part.
